For at least one entry, the source does not settle the construct or the ends of the probe. At least one verdict was read from the data and is not stated in words by the source.
Assays:
Test in all cases: EMSA
[1] = test system: GST-NtERF130 (Nicotiana tabacum)
[2] = test system: GST-NtERF29 (Nicotiana tabacum)
[3] = test system: GST-NtERF199 (Nicotiana tabacum)
[4] = test system: GST-NtERF16 (Nicotiana tabacum)

Measured: binding result

GTTTGTAAGCACTCCAGCCATGTTAATGGAGTGC (double strand) [NtQPT2 probe]
binds: all assays above

CTCTATTATATCGAGTTGCGCCCTCCACTCCTCGGTGTC (double strand) [NtPMT2 probe]
binds: all assays above

Reference: publication doi:10.1101/2020.07.04.187922
